Laboratory results as given in PMC8643696.
No constants are given. Whether binding was seen depends on the method and setting. A result given as binding can be weak or reduced; the word gives no strength. Sequences can lack the tags named with a protein.

Target: T1, AtCYP59 (PlCYP5 homolog of Arabidopsis thaliana), two-hybrid fusion (Arabidopsis thaliana) (UniProt Q6Q151)
T1 sequence: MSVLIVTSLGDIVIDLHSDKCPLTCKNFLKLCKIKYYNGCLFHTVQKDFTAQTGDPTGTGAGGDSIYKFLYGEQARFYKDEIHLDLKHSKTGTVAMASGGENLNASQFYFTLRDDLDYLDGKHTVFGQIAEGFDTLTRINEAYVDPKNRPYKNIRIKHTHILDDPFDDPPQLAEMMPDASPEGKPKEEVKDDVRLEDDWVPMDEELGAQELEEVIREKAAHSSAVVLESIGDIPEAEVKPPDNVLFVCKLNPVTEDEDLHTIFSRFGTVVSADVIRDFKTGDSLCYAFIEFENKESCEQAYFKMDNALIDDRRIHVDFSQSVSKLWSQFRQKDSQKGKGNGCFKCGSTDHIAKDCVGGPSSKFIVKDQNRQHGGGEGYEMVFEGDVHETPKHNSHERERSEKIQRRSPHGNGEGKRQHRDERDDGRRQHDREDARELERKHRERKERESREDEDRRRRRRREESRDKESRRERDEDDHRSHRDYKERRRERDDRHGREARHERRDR
Assay: two-hybrid; pGBKT7 (BD) bait and pGADT7 (AD) prey co-transformed into yeast Y2H GOLD; spotted in 10-fold dilution on SD/-Trp-Leu and SD/-Trp-Leu-His-Ade with X-alpha-gal and AbA, 3 days at 30 C

binding: binds
Substance: PlRPS15 (uS19) of Purpureocillium lilacinum, two-hybrid fusion
